Laboratory results reported in US20230416352A1.
Results are given in words; binding and its absence hold for the method and conditions named. Some results given as binding are weak or reduced against the parent protein; the word gives no strength.

Protein sequences, listed by entry. Tags and fused reporters are not part of them. Residues count along the entry.
UniProt P29279, residues 27-349: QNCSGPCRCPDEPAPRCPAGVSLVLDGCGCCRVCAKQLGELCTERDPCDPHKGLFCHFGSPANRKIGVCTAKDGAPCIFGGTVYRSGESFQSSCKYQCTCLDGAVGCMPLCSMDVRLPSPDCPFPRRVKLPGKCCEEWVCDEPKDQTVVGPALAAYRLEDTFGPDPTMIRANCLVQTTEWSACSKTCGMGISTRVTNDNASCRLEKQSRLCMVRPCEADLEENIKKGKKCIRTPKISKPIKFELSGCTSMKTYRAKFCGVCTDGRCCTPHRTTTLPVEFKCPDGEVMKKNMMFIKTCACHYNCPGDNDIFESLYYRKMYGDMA

What was measured:
[1] = biological target: human CTGF protein (R&D, Cat No. 9190-CC) (human) (UniProt P29279); assay: ELISA, plate coated with human CTGF (R&D)
[2] = biological target: human CTGF protein (R&D, Cat No. 9190-CC) (human) (UniProt P29279); assay: ELISA, plate coated with human CTGF protein, HRP anti-human secondary antibody, OD450

| binding [1] | binding [2] | Binder |
| --- | --- | --- |
| binds | binds | Hu164-87wl (antibody, human IgG1, lambda, V domains shown) VH: EVQLQESGPGLVKPSQTLSLTCTVSGFSISTFGVHWIRQHPGKGLEWLGVIWRRGGTDYNAAFMSRLTISKDTSKNQVSFKLSSVTAADTAVYYCARDGGFDYWGQGTTVTVSS VL: ETVVTQEPSLTVSPGGTVTLTCRSSIGAVTTSNYANWVQQKPGQAFRGLIGGTSNRAPWTPARFSGSLLGGKAALTLSGVQPEDEAEYYCALWYSTHYVFGGGTKLTVLG |
| binds |  | Hu147-11wk (antibody, human IgG1, kappa, V domains shown) VH: EVQLVESGGGLVQPGGSLRLSCAASGFTFSTYAMNWVRQAPGKGLEWVGRIRTKSNNYATYYADSVKDRFTISRDDSKNSLYLQMNSLKTEDTAVYYCVETGFAYWDQGTLVTVSS VL: EIVLTQSPATLSLSPGERATLSCSASSSVSYMHWFQQKPGQSPRLLIYSTSNLASGIPARFSGSGSGTDYTLTISSLEPEDFAVYYCQQRSSYPLTFGQGTKLEIKR |
| binds |  | Hu147-31wk (antibody, human IgG1, kappa, V domains shown) VH: EVQLVESGGGLVQPGGSLRLSCAASGFSFNTYAMNWVRQAPGKGLEWVARIRTKSNNYATYYADSVKDRFTISRDDSESSLYLQMNSLKTEDTAVYYCVETGFAYWDQGTLVTVSS VL: EIVLTQSPATLSLSPGERATLSCSASSSVSYMHWFQQKPGQSPRLLIYSTSNLASGIPARFSGSGSGTDYTLTISSLEPEDFAVYYCQQRSSYPLTFGQGTKLEIKR |
| binds |  | Hu147-24wk (antibody, human IgG1, kappa, V domains shown) VH: EVQLVESGGGLVQPGGSLRLSCAASGFTFNTYAMNWVRQAPGKGLEWVARIRTKSNNYATYYADSVKDRFTISRDDSKNSLYLQMNSLKTEDTAVYYCVETGFAYWDQGTLVTVSS VL: DIQMTQSPSSLSASVGDRVTITCSASSSVSYMHWFQQKPGKSPKLLIYSTSNLASGVPSRFSGSGSGTDYTLTISSLQPEDFATYYCQQRSSYPLTFGQGTKLEIKR |
| binds |  | Hu147-21wk (antibody, human IgG1, kappa, V domains shown) VH: EVQLVESGGGLVQPGGSLRLSCAASGFTFNTYAMNWVRQAPGKGLEWVARIRTKSNNYATYYADSVKDRFTISRDDSKNSLYLQMNSLKTEDTAVYYCVETGFAYWDQGTLVTVSS VL: EIVLTQSPATLSLSPGERATLSCSASSSVSYMHWFQQKPGQSPRLLIYSTSNLASGIPARFSGSGSGTDYTLTISSLEPEDFAVYYCQQRSSYPLTFGQGTKLEIKR |
| binds |  | Hu147-12wk (antibody, human IgG1, kappa, V domains shown) VH: EVQLVESGGGLVQPGGSLRLSCAASGFTFSTYAMNWVRQAPGKGLEWVGRIRTKSNNYATYYADSVKDRFTISRDDSKNSLYLQMNSLKTEDTAVYYCVETGFAYWDQGTLVTVSS VL: EIVLTQSPATLSLSPGERATLSCSASSSVSYMHWFQQKPGQSPKLLIYSTSNLASGIPARFSGSGSGTDYTLTISSLEPEDFAVYYCQQRSSYPLTFGQGTKLEIKR |
| binds |  | Hu147-13wk (antibody, human IgG1, kappa, V domains shown) VH: EVQLVESGGGLVQPGGSLRLSCAASGFTFSTYAMNWVRQAPGKGLEWVGRIRTKSNNYATYYADSVKDRFTISRDDSKNSLYLQMNSLKTEDTAVYYCVETGFAYWDQGTLVTVSS VL: EIVLTQSPATLSLSPGERATLSCSASSSVSYMHWFQQKPGQSPKLWIYSTSNLASGVPARFSGSGSGTDYTLTISSLEPEDFAVYYCQQRSSYPLTFGQGTKLEIKR |
| binds |  | Hu147-33wk (antibody, human IgG1, kappa, V domains shown) VH: EVQLVESGGGLVQPGGSLRLSCAASGFSFNTYAMNWVRQAPGKGLEWVARIRTKSNNYATYYADSVKDRFTISRDDSESSLYLQMNSLKTEDTAVYYCVETGFAYWDQGTLVTVSS VL: EIVLTQSPATLSLSPGERATLSCSASSSVSYMHWFQQKPGQSPKLWIYSTSNLASGVPARFSGSGSGTDYTLTISSLEPEDFAVYYCQQRSSYPLTFGQGTKLEIKR |
| binds |  | Hu147-15wk (antibody, human IgG1, kappa, V domains shown) VH: EVQLVESGGGLVQPGGSLRLSCAASGFTFSTYAMNWVRQAPGKGLEWVGRIRTKSNNYATYYADSVKDRFTISRDDSKNSLYLQMNSLKTEDTAVYYCVETGFAYWDQGTLVTVSS VL: DIQLTQSPSSLSASVGDRVTITCSASSSVSYMHWFQQKPGKSPKLWIYSTSNLASGVPSRFSGSGSGTDYTLTISSLQPEDFATYYCQQRSSYPLTFGQGTKLEIKR |

The remaining lines, values behind:

| Binder | binding [1] | binding [2] |
| --- | --- | --- |
| Hu164-77wl (antibody, human IgG1, lambda, V domains shown) VH: EVQLQESGPGLVKPSQTLSLTCTVSGFSISTFGVHWIRQHPGKGLEWIGVIWRRGGTDYNAAFMSRVTISKDTSKNQVSLKLSSVTAADTAVYYCARDGGFDYWGQGTTVTVSS VL: ETVVTQEPSLTVSPGGTVTLTCRSSIGAVTTSNYANWVQQKPGQAFRGLIGGTSNRAPWTPARFSGSLLGGKAALTLSGVQPEDEAEYYCALWYSTHYVFGGGTKLTVLG | binds | binds |
| Hu164-57wl (antibody, human IgG1, lambda, V domains shown) VH: EVTLKESGPVLVKPTETLTLTCTVSGFSLSTFGVHWIRQPPGKALEWLAVIWRRGGTDYNAAFMSRLTISKDTSKSQVVLTMTNMDPVDTATYYCARDGGFDYWGQGTTVTVSS VL: ETVVTQEPSLTVSPGGTVTLTCRSSIGAVTTSNYANWVQQKPGQAFRGLIGGTSNRAPWTPARFSGSLLGGKAALTLSGVQPEDEAEYYCALWYSTHYVFGGGTKLTVLG | binds | binds |
| Hu164-68wl (antibody, human IgG1, lambda, V domains shown) VH: EVTLKESGPVLVKPTETLTLTCTVSGFSLSTFGVHWIRQPPGKGLEWLGVIWRRGGTDYNAAFMSRLTISKDTSKSQVVFTMTNMDPVDTATYYCARDGGFDYWGQGTTVTVSS VL: ETVVTQEPSFSVSPGGTVTLTCRSSIGAVTTSNYANWVQQTPGQAFRGLIGGTSNRAPGVPDRFSGSILGNKAALTITGAQADDESDYYCALWYSTHYVFGGGTKLTVLG | binds | binds |
| Hu164-69wl (antibody, human IgG1, lambda, V domains shown) VH: EVTLKESGPVLVKPTETLTLTCTVSGFSLSTFGVHWIRQPPGKGLEWLGVIWRRGGTDYNAAFMSRLTISKDTSKSQVVFTMTNMDPVDTATYYCARDGGFDYWGQGTTVTVSS VL: ESVVTQPPSVSGAPGQRVTISCRSSIGAVTTSNYANWVQQLPGTAFKGLIGGTSNRAPGVPDRFSGSKSGTSASLAITGLQAEDEADYYCALWYSTHYVFGGGTKLTVLG | binds | binds |
| Hu95-51yk (antibody, human IgG1, kappa, V domains shown) VH: EVQLVQSGAEVKKPGASVKVSCRASGFTFTNYAIHWVKQAPGQRLEWMGLVYPYTGGTAYNQKFKDKVTLTFDTSASTAYMELSSLRSEDTAVYYCARWGMIPGTNSYFDVWGQGTTVTVSS VL: EIVLTQSPATLSLSPGERATLSCRASSSVSYIHWYQQKPGQAPRPWIYATSNLASGIPARFSGSGSGTDYTLTISRLEPEDFAVYYCQQWNSNPWTFGGGTKVEIKR | binds |  |
| Hu147-32wk (antibody, human IgG1, kappa, V domains shown) VH: EVQLVESGGGLVQPGGSLRLSCAASGFSFNTYAMNWVRQAPGKGLEWVARIRTKSNNYATYYADSVKDRFTISRDDSESSLYLQMNSLKTEDTAVYYCVETGFAYWDQGTLVTVSS VL: EIVLTQSPATLSLSPGERATLSCSASSSVSYMHWFQQKPGQSPKLLIYSTSNLASGIPARFSGSGSGTDYTLTISSLEPEDFAVYYCQQRSSYPLTFGQGTKLEIKR | binds |  |
| Hu147-34wk (antibody, human IgG1, kappa, V domains shown) VH: EVQLVESGGGLVQPGGSLRLSCAASGFSFNTYAMNWVRQAPGKGLEWVARIRTKSNNYATYYADSVKDRFTISRDDSESSLYLQMNSLKTEDTAVYYCVETGFAYWDQGTLVTVSS VL: DIQMTQSPSSLSASVGDRVTITCSASSSVSYMHWFQQKPGKSPKLLIYSTSNLASGVPSRFSGSGSGTDYTLTISSLQPEDFATYYCQQRSSYPLTFGQGTKLEIKR | binds |  |
| Hu147-22wk (antibody, human IgG1, kappa, V domains shown) VH: EVQLVESGGGLVQPGGSLRLSCAASGFTFNTYAMNWVRQAPGKGLEWVARIRTKSNNYATYYADSVKDRFTISRDDSKNSLYLQMNSLKTEDTAVYYCVETGFAYWDQGTLVTVSS VL: EIVLTQSPATLSLSPGERATLSCSASSSVSYMHWFQQKPGQSPKLLIYSTSNLASGIPARFSGSGSGTDYTLTISSLEPEDFAVYYCQQRSSYPLTFGQGTKLEIKR | binds |  |
| Hu147-23wk (antibody, human IgG1, kappa, V domains shown) VH: EVQLVESGGGLVQPGGSLRLSCAASGFTFNTYAMNWVRQAPGKGLEWVARIRTKSNNYATYYADSVKDRFTISRDDSKNSLYLQMNSLKTEDTAVYYCVETGFAYWDQGTLVTVSS VL: EIVLTQSPATLSLSPGERATLSCSASSSVSYMHWFQQKPGQSPKLWIYSTSNLASGVPARFSGSGSGTDYTLTISSLEPEDFAVYYCQQRSSYPLTFGQGTKLEIKR | binds |  |
| Hu147-14wk (antibody, human IgG1, kappa, V domains shown) VH: EVQLVESGGGLVQPGGSLRLSCAASGFTFSTYAMNWVRQAPGKGLEWVGRIRTKSNNYATYYADSVKDRFTISRDDSKNSLYLQMNSLKTEDTAVYYCVETGFAYWDQGTLVTVSS VL: DIQMTQSPSSLSASVGDRVTITCSASSSVSYMHWFQQKPGKSPKLLIYSTSNLASGVPSRFSGSGSGTDYTLTISSLQPEDFATYYCQQRSSYPLTFGQGTKLEIKR | binds |  |
